Measured values reported in PMC4648065.
These are yes or no findings as the source states them, for the method shown. Some results given as binding are weak or reduced against the parent protein; the word gives no strength.

Amino acid sequences for entries named in this document (tags omitted).
UniProt Q16531: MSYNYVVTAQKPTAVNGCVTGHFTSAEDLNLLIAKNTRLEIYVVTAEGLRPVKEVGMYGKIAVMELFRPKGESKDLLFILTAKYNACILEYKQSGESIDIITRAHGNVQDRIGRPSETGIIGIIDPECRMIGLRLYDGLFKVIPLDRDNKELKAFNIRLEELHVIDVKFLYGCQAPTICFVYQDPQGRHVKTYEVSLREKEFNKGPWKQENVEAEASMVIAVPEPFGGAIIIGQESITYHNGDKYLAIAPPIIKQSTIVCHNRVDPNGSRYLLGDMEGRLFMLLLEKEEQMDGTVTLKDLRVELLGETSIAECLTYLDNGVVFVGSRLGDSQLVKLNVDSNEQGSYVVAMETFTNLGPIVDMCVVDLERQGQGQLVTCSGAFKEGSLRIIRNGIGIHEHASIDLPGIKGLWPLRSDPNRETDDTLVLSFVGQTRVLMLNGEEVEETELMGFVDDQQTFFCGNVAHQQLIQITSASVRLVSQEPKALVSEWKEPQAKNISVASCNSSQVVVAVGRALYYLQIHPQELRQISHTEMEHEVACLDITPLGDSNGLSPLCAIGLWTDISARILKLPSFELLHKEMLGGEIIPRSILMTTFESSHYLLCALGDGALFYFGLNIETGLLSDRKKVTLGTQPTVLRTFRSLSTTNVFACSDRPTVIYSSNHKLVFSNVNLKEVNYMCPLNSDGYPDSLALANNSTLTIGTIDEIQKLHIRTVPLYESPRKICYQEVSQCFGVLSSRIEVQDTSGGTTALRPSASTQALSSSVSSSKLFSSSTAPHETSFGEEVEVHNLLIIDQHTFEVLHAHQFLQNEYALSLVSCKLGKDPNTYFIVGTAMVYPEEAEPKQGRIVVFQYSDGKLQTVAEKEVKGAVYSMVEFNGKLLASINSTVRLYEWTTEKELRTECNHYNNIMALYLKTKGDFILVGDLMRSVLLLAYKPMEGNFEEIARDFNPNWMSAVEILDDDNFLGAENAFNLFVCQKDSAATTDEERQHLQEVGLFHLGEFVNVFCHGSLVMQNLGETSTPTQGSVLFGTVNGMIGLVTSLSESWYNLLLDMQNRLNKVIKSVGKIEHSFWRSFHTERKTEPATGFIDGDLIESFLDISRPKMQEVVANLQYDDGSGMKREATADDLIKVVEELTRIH
UniProt Q92466: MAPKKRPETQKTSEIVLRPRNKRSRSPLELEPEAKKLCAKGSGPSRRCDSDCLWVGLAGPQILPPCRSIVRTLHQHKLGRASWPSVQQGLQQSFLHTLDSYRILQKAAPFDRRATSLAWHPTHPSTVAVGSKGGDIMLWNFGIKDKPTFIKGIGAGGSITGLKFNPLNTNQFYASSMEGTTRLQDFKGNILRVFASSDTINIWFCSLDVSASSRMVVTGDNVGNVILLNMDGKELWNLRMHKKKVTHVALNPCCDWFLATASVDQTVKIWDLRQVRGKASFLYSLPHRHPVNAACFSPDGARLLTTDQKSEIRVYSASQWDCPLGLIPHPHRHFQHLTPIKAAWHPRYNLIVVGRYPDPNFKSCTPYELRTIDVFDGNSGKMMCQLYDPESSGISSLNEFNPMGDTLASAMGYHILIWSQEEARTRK

Biological target: DDB1 subunit of human UV-damaged DNA-binding protein (UV-DDB) (human) (UniProt Q16531)
Experiment: co-purification of a recombinant heterodimer; UV-DDB (DDB1-DDB2 heterodimer) expressed in insect cells and purified as described previously (ref. 23)

Substance: DDB2 subunit of human UV-damaged DNA-binding protein (UV-DDB) (from UniProt Q92466 1-427)
- binding: binds
